{"source": "the supplement of paper PMC4604168 (melanoma cell lines)", "note": "Some of the results follow. Repeats are few or missing, and single values can be far off.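 Imaging used 1,536-well plates; nuclei positive for cleaved PARP by antibody were divided by total DNA-stained nuclei to yield the apoptosis fraction. Doses for screening kept most cells viable, and cell lines differ markedly in resting and induced cleaved-PARP levels.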", "data": [{"test_system": "LB2518-MEL", "experiment": "cleaved PARP positive nuclei fraction relative to DMSO control; melanoma cells; higher = more apoptosis", "conditions": "library dose: low library concentration; 72 h", "units": {"cleaved PARP positive nuclei fraction": "%"}, "values": [{"smiles": "O=c1[nH]nc(Sc2ncc([N+](=O)[O-])s2)n1-c1ccc2c(c1)OCCO2", "note": "+ NC(=O)c1ccc(N(C(N)=O)c2c(F)cccc2F)nc1-c1ccc(F)cc1F [VX702] (first compound 0.2 µM, partner dose 0.4 µM)", "cleaved PARP positive nuclei fraction": 98.8}, {"smiles": "Cc1ccc(Nc2nccc(N(C)c3ccc4c(C)n(C)nc4c3)n2)cc1S(N)(=O)=O", "note": "[Pazopanib] + CO[C@H]1C[C@@H]2CC[C@@H](C)[C@@](O)(O2)C(=O)C(=O)N2CCCC[C@H]2C(=O)O[C@H]([C@H](C)C[C@@H]2CC[C@@H](OCCO)[C@H](OC)C2)CC(=O)[C@H](C)/C=C(\\C)[C@@H](O)[C@@H](OC)C(=O)[C@H](C)C[C@H](C)/C=C/C=C/C=C/1C [everolimus] (first compound 0.4 µM, partner dose 0.02 µM)", "cleaved PARP positive nuclei fraction": 138}, {"smiles": "Cc1ccc(Nc2nccc(N(C)c3ccc4c(C)n(C)nc4c3)n2)cc1S(N)(=O)=O", "note": "[Pazopanib] + CCCS(=O)(=O)Nc1ccc(F)c(C(=O)c2c[nH]c3ncc(Cl)cc23)c1F [PLX4720] (first compound 0.4 µM, partner dose 0.08 µM)", "cleaved PARP positive nuclei fraction": 212}, {"smiles": "N#CC[C@H](C1CCCC1)n1cc(-c2ncnc3[nH]ccc23)cn1", "note": "[ruxolitinib] + OCc1c[nH]c2ccccc12 [Indole-3-carbinol] (first compound 1 µM, partner dose 0.8 µM)", "cleaved PARP positive nuclei fraction": 209}, {"smiles": "Cc1ccc(Nc2nccc(N(C)c3ccc4c(C)n(C)nc4c3)n2)cc1S(N)(=O)=O", "note": "[Pazopanib] + OCc1c[nH]c2ccccc12 [Indole-3-carbinol] (first compound 0.4 µM, partner dose 0.8 µM)", "cleaved PARP positive nuclei fraction": 49.3}, {"smiles": "COc1cc([C@@H]2c3cc4c(cc3[C@@H](O[C@@H]3O[C@@H]5CO[C@@H](C)O[C@H]5[C@H](O)[C@H]3O)[C@H]3COC(=O)[C@H]23)OCO4)cc(OC)c1O", "note": "[etoposide] + C[C@]1(O)C[C@@H](c2nc(-c3ccc4ccc(-c5ccccc5)nc4c3)c3c(N)nccn32)C1 [OSI906] (first compound 0.02 µM, partner dose 0.4 µM)", "cleaved PARP positive nuclei fraction": 53.8}, {"smiles": "N#CC[C@H](C1CCCC1)n1cc(-c2ncnc3[nH]ccc23)cn1", "note": "[ruxolitinib] + CO[C@H]1C[C@@H]2CC[C@@H](C)[C@@](O)(O2)C(=O)C(=O)N2CCCC[C@H]2C(=O)O[C@H]([C@H](C)C[C@@H]2CC[C@@H](OCCO)[C@H](OC)C2)CC(=O)[C@H](C)/C=C(\\C)[C@@H](O)[C@@H](OC)C(=O)[C@H](C)C[C@H](C)/C=C/C=C/C=C/1C [everolimus] (first compound 1 µM, partner dose 0.02 µM)", "cleaved PARP positive nuclei fraction": 27.1}, {"smiles": "Cc1ccc(Nc2nccc(N(C)c3ccc4c(C)n(C)nc4c3)n2)cc1S(N)(=O)=O", "note": "[Pazopanib] + Cn1nnc2c(C(N)=O)ncn2c1=O [temozolomide] (first compound 0.4 µM, partner dose 2 µM)", "cleaved PARP positive nuclei fraction": 114}, {"smiles": "O=c1[nH]nc(Sc2ncc([N+](=O)[O-])s2)n1-c1ccc2c(c1)OCCO2", "note": "+ CCCS(=O)(=O)Nc1ccc(F)c(C(=O)c2c[nH]c3ncc(Cl)cc23)c1F [PLX4720] (first compound 0.2 µM, partner dose 0.08 µM)", "cleaved PARP positive nuclei fraction": 104}, {"smiles": "Cc1ccc(Nc2nccc(N(C)c3ccc4c(C)n(C)nc4c3)n2)cc1S(N)(=O)=O", "note": "[Pazopanib] + CC(=O)c1c(C)c2cnc(Nc3ccc(N4CCNCC4)cn3)nc2n(C2CCCC2)c1=O [palbociclib] (first compound 0.4 µM, partner dose 0.04 µM)", "cleaved PARP positive nuclei fraction": 55.8}, {"smiles": "Cc1cn(-c2cc(NC(=O)c3ccc(C)c(Nc4nccc(-c5cccnc5)n4)c3)cc(C(F)(F)F)c2)cn1", "note": "[nilotinib] + CN(c1ncccc1CNc1nc(Nc2ccc3c(c2)CC(=O)N3)ncc1C(F)(F)F)S(C)(=O)=O [PF562271] (first compound 0.2 µM, partner dose 0.08 µM)", "cleaved PARP positive nuclei fraction": 123}, {"smiles": "CC[C@]1(O)C[C@H]2CN(CCc3c([nH]c4ccccc34)[C@@](C(=O)OC)(c3cc4c(cc3OC)N(C=O)[C@H]3[C@@](O)(C(=O)OC)[C@H](OC(C)=O)[C@]5(CC)C=CCN6CC[C@]43[C@@H]65)C2)C1", "note": "[vincristine] + COCC[n+]1c2c(n(Cc3cnccn3)c1C)C(=O)c1ccccc1C2=O [YM155] (first compound 0.0001 µM, partner dose 0.0004 µM)", "cleaved PARP positive nuclei fraction": 220}, {"smiles": "Cc1cn(-c2cc(NC(=O)c3ccc(C)c(Nc4nccc(-c5cccnc5)n4)c3)cc(C(F)(F)F)c2)cn1", "note": "[nilotinib] + O=C(O)[C@@H]1[O][Sb](=[O])([O][Sb]2(=[O])[O][C@H]([C@H](O)CO)[C@H](O)[C@H](C(=O)O)[O]2)[O][C@H]([C@H](O)CO)[C@@H]1O [stibogluconate] (first compound 0.2 µM, partner dose 2 µM)", "cleaved PARP positive nuclei fraction": 82.8}, {"smiles": "COc1cc([C@@H]2c3cc4c(cc3[C@@H](O[C@@H]3O[C@@H]5CO[C@@H](C)O[C@H]5[C@H](O)[C@H]3O)[C@H]3COC(=O)[C@H]23)OCO4)cc(OC)c1O", "note": "[etoposide] + CCCCCCCCCCCCCCCCCCOP(=O)([O-])OC1CC[N+](C)(C)CC1 [Perifosine] (first compound 0.02 µM, partner dose 0.4 µM)", "cleaved PARP positive nuclei fraction": 94.8}, {"smiles": "O=C(/C=C/c1cccnc1)NCCCCC1CCN(C(=O)c2ccccc2)CC1", "note": "+ CS(=O)(=O)c1ccc(C(=O)Nc2ccc(Cl)c(-c3ccccn3)c2)c(Cl)c1 [vismodegib] (first compound 0.01 µM, partner dose 1 µM)", "cleaved PARP positive nuclei fraction": 254}, {"smiles": "O=C(Nc1cc(C(F)(F)F)cc(C(F)(F)F)c1)c1cc(Cl)ccc1O", "note": "+ CCCCCCCCc1ccc(CCC(N)(CO)CO)cc1 [fingolimod] (first compound 0.016 µM, partner dose 2 µM)", "cleaved PARP positive nuclei fraction": 99.7}, {"smiles": "CC[C@]1(O)C[C@H]2CN(CCc3c([nH]c4ccccc34)[C@@](C(=O)OC)(c3cc4c(cc3OC)N(C=O)[C@H]3[C@@](O)(C(=O)OC)[C@H](OC(C)=O)[C@]5(CC)C=CCN6CC[C@]43[C@@H]65)C2)C1", "note": "[vincristine] + CCCCCCCCCCCCCCCCCCOP(=O)([O-])OC1CC[N+](C)(C)CC1 [Perifosine] (first compound 0.0001 µM, partner dose 0.4 µM)", "cleaved PARP positive nuclei fraction": 130}, {"smiles": "Cc1cc(Nc2cc(N3CCN(C)CC3)nc(Sc3ccc(NC(=O)C4CC4)cc3)n2)n[nH]1", "note": "[Tozasertib] + C#Cc1cccc(Nc2ncnc3cc(OCCOC)c(OCCOC)cc23)c1 [erlotinib] (first compound 0.006 µM, partner dose 0.8 µM)", "cleaved PARP positive nuclei fraction": 53.4}, {"smiles": "Cc1cc(Nc2cc(N3CCN(C)CC3)nc(Sc3ccc(NC(=O)C4CC4)cc3)n2)n[nH]1", "note": "[Tozasertib] + CO[C@H]1C[C@@H]2CC[C@@H](C)[C@@](O)(O2)C(=O)C(=O)N2CCCC[C@H]2C(=O)O[C@H]([C@H](C)C[C@@H]2CC[C@@H](OCCO)[C@H](OC)C2)CC(=O)[C@H](C)/C=C(\\C)[C@@H](O)[C@@H](OC)C(=O)[C@H](C)C[C@H](C)/C=C/C=C/C=C/1C [everolimus] (first compound 0.006 µM, partner dose 0.02 µM)", "cleaved PARP positive nuclei fraction": 149}, {"smiles": "Cc1ccc(Nc2nccc(N(C)c3ccc4c(C)n(C)nc4c3)n2)cc1S(N)(=O)=O", "note": "[Pazopanib] + C#Cc1cccc(Nc2ncnc3cc(OCCOC)c(OCCOC)cc23)c1 [erlotinib] (first compound 0.4 µM, partner dose 0.8 µM)", "cleaved PARP positive nuclei fraction": 66.4}, {"smiles": "CCCCCCCCCCCCCCCCCCOP(=O)([O-])OC1CC[N+](C)(C)CC1", "note": "[Perifosine] + C=C(c1ccc(C(=O)O)cc1)c1cc2c(cc1C)C(C)(C)CCC2(C)C [Bexarotene] (first compound 0.4 µM, partner dose 2 µM)", "cleaved PARP positive nuclei fraction": 107}, {"smiles": "O=c1[nH]nc(Sc2ncc([N+](=O)[O-])s2)n1-c1ccc2c(c1)OCCO2", "note": "+ Cc1cc(Nc2cc(N3CCN(C)CC3)nc(/C=C/c3ccccc3)n2)n[nH]1 [ENMD2076] (first compound 0.2 µM, partner dose 0.04 µM)", "cleaved PARP positive nuclei fraction": 182}, {"smiles": "CCCCCCCCCCCCCCCCCCOP(=O)([O-])OC1CC[N+](C)(C)CC1", "note": "[Perifosine] + Clc1ccc(Nc2nnc(Cc3ccncc3)c3ccccc23)cc1 [vatalanib] (first compound 0.4 µM, partner dose 2 µM)", "cleaved PARP positive nuclei fraction": 102}, {"smiles": "Cc1cn(-c2cc(NC(=O)c3ccc(C)c(Nc4nccc(-c5cccnc5)n4)c3)cc(C(F)(F)F)c2)cn1", "note": "[nilotinib] + Cn1nnc2c(C(N)=O)ncn2c1=O [temozolomide] (first compound 0.2 µM, partner dose 2 µM)", "cleaved PARP positive nuclei fraction": 50.4}]}]}
